{"source": "patent US11945844B2", "about": "“Taste and flavor-modifier proteins” (AMAI PROTEINS LTD., priority 2018, dated 2024)", "tested_on": "trained participants", "test": "Example 1D: blind testing of sweetness potency, aftertaste and lingering in comparison to sugar solution", "assay_type": "in vivo, human", "conditions": "ratio relative to sucrose", "protocol": "Based on the optimization above, the sweetness potency, the aftertaste and the lingering effect of DM08 and DM09 were tested as compared with MNEI and additional sweeteners as shown in Table 7. Test method included blind testing in 6 trained participants of each one of the proteins in comparison to sugar solution.", "note": "At least one compound was matched to its structure with a doubt left."}
{"molecule": "C=C1C[C@@]23CC[C@H]4[C@@](C)(CCC[C@@]4(C)C(=O)O[C@@H]4O[C@H](CO)[C@@H](O)[C@H](O)[C@H]4O)[C@@H]2CC[C@]1(O[C@@H]1O[C@H](CO)[C@@H](O)[C@H](O[C@@H]2O[C@H](CO)[C@@H](O)[C@H](O)[C@H]2O)[C@H]1O[C@@H]1O[C@H](CO)[C@@H](O)[C@H](O)[C@H]1O)C3", "note": "[Stevia REB A, reference compound]", "values": [{"measurement": "Sweetness Potency at 5° BX perception", "result": "1:250"}, {"measurement": "Sweetness Potency at 8° BX perception", "result": "1:200^"}, {"measurement": "Estimated threshold concentration", "setting": "6 trained participants", "result": "1:400"}]}
